Laboratory results taken from patent US12653860B2, “Compositions and methods for editing beta-globin for treatment of hemaglobinopathies” (Vertex Pharmaceuticals Incorporated, priority 2019, dated 2026).
Some entries share one result that the patent states for a list of compounds.

Test system: cKit mice
Experiment: Engraftment (percent chimerism) of edited human LT-HSPCs in irradiated mice
Type: in vivo
Settings: blood at 8 and 16 weeks; AAV.307; FIG. 17
Protocol: The cells were administered by intravenous injection to cKit mice at 2 days following electroporation. Recipient mice were treated with sublethal irradiation (100 cGy) at 1 day prior to administration of LT-HSPCs to eliminate hematopoietic cells in the bone marrow and enable engraftment of the donor cells. Animals were evaluated for presence of human hematopoietic cells in peripheral blood at 8 and 16 weeks following LT-HSPC administration. The bone marrow was also evaluated for engraftment and maintenance of the HBB gene-edit at 16 weeks following LT-HSPC administration.
Presence of human hematopoietic cells was measured by flow cytometry in mouse blood or bone marrow samples. Cells were gated on singlet, live cells. […] Engraftment was measured as percent chimerism which was defined as the quantity of human CD45 positive cells divided by the total number of CD45 positive cells (e.g., human and mouse CD45 expressing cells combined). The lineage of human CD45 positive cells was determined using markers for CD19 (e.g., B cells), CD3 (e.g., T cells), CD33 (e.g., myeloid cells), and CD34 (hematopoietic stem/progenitor cells (HSPCs)). […]
A dose of 0.5×10^6 cells was administered by intravenous injection to cKit mice at 2 days following electroporation. […] Animals were evaluated for presence of human hematopoietic cells in peripheral blood at 8 and 16 weeks following LT-HSPC administration. […]

## i53: polypeptide inhibitor of 53BP1 (SEQ ID NO: 70), delivered as mRNA (ORF SEQ ID NO: 69)
  human CD45-expressing cells among total CD45-expressing cells in blood: 2-3%
